# Primary screen of a compound library

T. brucei: 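Whole-parasite assay of Trypanosoma brucei over 72 hours; the read-out is not stated. Tested at 30 µM. Direction is inferred from retests: higher values go with stronger inhibition. Values scatter widely below zero; nearly all retest evidence comes from the higher of the two concentrations used. Size under these conditions: about 64,000 compounds, about 940 of them at 50% or above in at least one test.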
Leishmania in macrophages: 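Cell assay of Leishmania donovani living inside macrophages; the read-out is not stated. Compounds at 30 µM. Direction is inferred from retests: higher values go with stronger inhibition. Size under these conditions: about 69,000 compounds, about 1,000 of them at 50% or above in at least one test.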

Values are the deposited “Percent Effect”, in %.
How 0% and 100% were set is not recorded. Most values in the screen are low, and negative values occur.
This is an unselected part of the compounds tested.
Two or more numbers in one place are separate tests of the same structure; such repeats can differ widely.
A dash means the value is not listed here; it may have been measured.

| structure | T. brucei | Leishmania in macrophages |
|---|---|---|
| `O=C(O)C(F)(F)F.[H][C@]12CCN(Cc3ccccc3)CC[C@@]1([H])S(=O)(=O)N(CC(=O)N(C)C)C2` | -24.53% | 14.75% & 19.42% |
| `CCc1nc(C)c(CN2CCCC(c3nn(C)c(=O)n3CC)C2)[nH]1` (stereo unspecified) | -8.503% | 19.45% |
| `Cc1cc2nc(C(C)C)cc(N3CCC(O)CC3)n2n1` | 14.35% | 27.64% |
| `CC(C)(C)c1cnc(CN2CCC(NC(=O)C3CCOCC3)CC2)o1` | 0.4492% | 21.11% |
| `CSCC[C@H](N)C(=O)NCc1cc2n(n1)CCCN(C(=O)C1CCC1)C2` | -19.49% | 31.09% |
| `Cc1cc(N2CCC3(CCC(=O)N(CCO)C3)CC2)nc(N(C)C)n1` | -1.539% | 21.82% |
| `CCn1nccc1CN(C)c1[nH]cnc2nc(C)nc1-2` | -18.42% | 29.95% |
| `CN(C)C(=O)COCC1CN(Cc2ccsc2)Cc2nccn2C1` (stereo unspecified) | -39.21% | 2.69% |
| `[H][C@@]12CCN(C[C@@H]1CN(CC)CC)[C@@H](CNC(=O)c1ccco1)C2` | -2.889% | 13.71% |
| `O=C(Cc1csc(-c2ccco2)n1)N1CCSCC1` | -4.524% | 22.79% |
| `Cc1cc(C)c2[nH]c(C(=O)NCCN3CCCC3=O)c(C)c2c1` | -103.4% | 18.61% |
| `CC(C)(C)c1ccc(C2(C(=O)NCCS(C)(=O)=O)CC2)cc1` | -39.6% | -10.91% |
| `Cc1nc(C)n(CC2CN(Cc3cccc(C#N)c3)CCO2)n1` (stereo unspecified) | -16.96% | 27.87% |
| `CC(C)(CNc1ccc(S(=O)(=O)C(F)F)cc1)N1CCOCC1` | -2.694% | -38% |
| `CS(=O)(=O)Cc1ccc(C(=O)N2CCCC(n3cncn3)C2)o1` (stereo unspecified) | - | -28.23% |
| `CN1CCOC(CNCc2coc(-c3ccccc3)n2)C1` (stereo unspecified) | -39% | 18.99% |
| `COc1cccc(S(=O)(=O)Cc2cc(C)on2)c1` | -1.599% | 21.18% |
| `Cn1ccnc1C(=O)NCc1cc(=O)n2c(n1)CN(CC1CC1)CCC2` | - | 13.96% |
| `O=C(NC1CC1)C1(Cc2cc(-c3ccc(F)cc3F)no2)CCOCC1` | -5.75% | -22.04% |
| `Cn1ncc2c(N3CCC3)nc(-c3ccncc3)nc21` | -1.144% | 7.019% |
| `COc1ccc(Oc2cc(CN)ccn2)cc1` | -27.14% | 23.59% |
| `Cc1cccc(CN2CCn3cc(Cn4cccn4)nc3C2)n1.O=C(O)C(F)(F)F.O=C(O)C(F)(F)F.O=C(O)C(F)(F)F` | -12.32% | -6.061% |
| `Cn1cnnc1S(=O)(=O)C1CCN(S(=O)(=O)c2ccc(Cl)s2)CC1` | -15.69% | 5.645% & -5.194% |
| `CCN(C)C1CCCc2nc(C)sc21` (stereo unspecified) | -280.6% | -21.79% |
| `CNC(=O)CN1CCCC12CCN(C(=O)c1cccc(F)c1)CC2.O=C(O)C(F)(F)F` | -1.054% | 10.13% |
| `CCC(=O)N1CCC(c2cc(Nc3ncccn3)nc(C)n2)C1` (stereo unspecified) | 17.32% | 21.75% |
| `c1ccc2oc(CN3CCCCC3Cn3cncn3)nc2c1` (stereo unspecified) | -13.86% | 19.07% |
| `COc1cc(C(=O)NC(C)C)nc2c(C)cc(F)cc12` | -28.9% | -21.71% |
| `O=C1CC(c2ccc(C(=O)O)cc2)c2ncn(-c3ccc(Cl)cc3)c2N1` (stereo unspecified) | -32.16% | 12.2% |
| `Cc1ccc(OCCCC(=O)Nc2nonc2C)cc1C` | 2.645% | 1.215% |
| `[H][C@@]12CS(=O)(=O)C[C@]1([H])N(Cc1ncc[nH]1)CCN2Cc1ccccc1CC` | 8.83% | 7.191% |
| `Cc1nc(C)c(C)c(NCCSc2ccccn2)n1` | -3.812% | 17.52% |
| `CN(CCCc1nccn1C)C(=O)C1CCN(C(=O)C2CCCC2)CC1` | -12.41% | 32.59% |
| `CC(C(=O)N1CCn2cncc2C1)N1CCCC1` (stereo unspecified) | -2.217% | 44.32% |
| `CC(NCCN1CCC(N(C)C)CC1)c1ccc(F)cc1N(C)C` (stereo unspecified) | -47.03% | 15.55% |
| `CCc1nccn1C1CCCN(C(=O)c2c(C)nsc2NC)C1` (stereo unspecified) | 5.693% | -4.298% |
| `CCOc1ccccc1NC(=O)N(CCO)Cc1ccsc1` | - | -35.95% |
| `CCCN1CCCn2c(nc(CNC(=O)c3ccsc3)cc2=O)C1.O=C(O)C(F)(F)F` | - | -1.399% |
| `O=C(O)C(F)(F)F.O=C(O)C(F)(F)F.c1cnc(N2CC[C@@H](N3CCOCC3)[C@@H]2Cc2ccncc2)nc1` | -74.67% | -6.461% |
| `CN(Cc1ccc(OCC(=O)N2CCOCC2)cc1)S(C)(=O)=O` | -18.8% | 13.61% |
| `CC1CN(C)c2ccccc2CN1C(=O)c1ccncc1` (stereo unspecified) | -62.2% | 4.654% |
| `CN(C)c1ccc(C(O)CNC(=O)NCCCc2ccccc2)cc1` (stereo unspecified) | 3.35% | 8.432% |
| `CCN(C(=O)NCc1ccc(C)cc1OC)C(C)c1cccnc1` (stereo unspecified) | -13.1% | 51.84% |
| `Cl.O=C1CC2(CCCNC2)C(=O)N1Cc1ccccc1` (stereo unspecified) | -23.6% | 10.36% |
| `Cc1cccc(CN2C(=O)CCC23CCN(C(=O)c2ccco2)CC3)n1.O=C(O)C(F)(F)F` | -28.68% | 7.023% |
| `CCc1cc(NCCN2CCNC2=O)n2nccc2n1` | -6.674% | -33.29% |
| `N#Cc1ccc(NCC(=O)Nc2ccn(Cc3cccnc3)n2)cc1` | -3.229% | 17.08% |
| `c1cc(C2CN(C3CCCC3)C2)n[nH]1` | 0.3463% | 32.91% |
| `CN(C)CC(=O)N1CCc2sc(C(=O)NCC3CC3)cc21.O=C(O)C(F)(F)F` | -3.853% | -5.617% |
| `Cc1ccc(F)c2c1N(C(=O)c1ccc(S(C)(=O)=O)cc1)CCC2` | -6.452% | 24.86% |
| `COC(=O)c1cccc(CN(C)Cc2ncnn2C)c1C#N` | 0.4764% | 22.6% |
| `CN1CCN(C(=O)NC2CCCC2)Cc2cccnc21.O=C(O)C(F)(F)F` | -12.33% | -21.08% |
| `COC(=O)CC(NC(=O)CCCn1cccn1)c1ccc(Cl)cc1` (stereo unspecified) | -47.55% | 20.38% |
| `COc1ccc(CC(=O)Nc2ccc3ncn(C)c(=O)c3c2)cc1` | -10.86% | 3.178% |
| `COc1ccc(S(=O)(=O)Cc2noc(CC(C)C)n2)cc1` | -32.26% | -65.06% |
| `Cc1ccc(CN2CC[C@@H](O)[C@@H]2Cc2ccccc2)o1.O=C(O)C(F)(F)F` | -63.37% | -26.72% |
| `CCC(Nc1ccc(Oc2cccc(C#N)c2)cc1)C(N)=O` (stereo unspecified) | -11.39% | -2.041% |
| `COCCCN(C)c1nc(-c2ccncc2)nc(C)c1C` | -25.26% | -11.97% |
| `CCCNC(=O)C(C)Nc1cccc(Oc2ccc(C#N)cn2)c1` (stereo unspecified) | -99.83% | 27.1% |
| `CN(C)C(=O)N1CCC2(CC(=O)N(c3ccc4c(c3)OCO4)C2)C1` (stereo unspecified) | -31.38% | 1.939% |
| `CNC(=O)Cc1nc(CNc2ccc(SC)c(F)c2)cs1` | -53.91% | -13.75% |
| `O=C(C1CCOC1)N1CCC2(CC1)COC2` (stereo unspecified) | 2.328% | 6.435% |
| `CCN1CCC(Cn2ccc3ccc(C(=O)OC)cc3c2=O)C1` (stereo unspecified) | -31.32% | -5.398% |

Measurements from “University of Dundee, Small-Polar-MMV Screening Library” (2021), ChEMBL document CHEMBL3988442.